{
  "sequences": {"note": "The chains behind the UniProt entries cited, without tags or fusion partners. Where a name states a change or a piece, a line headed by the entry shows the natural chain unless it says otherwise. Residues count along the entry.", "UniProt P02454": "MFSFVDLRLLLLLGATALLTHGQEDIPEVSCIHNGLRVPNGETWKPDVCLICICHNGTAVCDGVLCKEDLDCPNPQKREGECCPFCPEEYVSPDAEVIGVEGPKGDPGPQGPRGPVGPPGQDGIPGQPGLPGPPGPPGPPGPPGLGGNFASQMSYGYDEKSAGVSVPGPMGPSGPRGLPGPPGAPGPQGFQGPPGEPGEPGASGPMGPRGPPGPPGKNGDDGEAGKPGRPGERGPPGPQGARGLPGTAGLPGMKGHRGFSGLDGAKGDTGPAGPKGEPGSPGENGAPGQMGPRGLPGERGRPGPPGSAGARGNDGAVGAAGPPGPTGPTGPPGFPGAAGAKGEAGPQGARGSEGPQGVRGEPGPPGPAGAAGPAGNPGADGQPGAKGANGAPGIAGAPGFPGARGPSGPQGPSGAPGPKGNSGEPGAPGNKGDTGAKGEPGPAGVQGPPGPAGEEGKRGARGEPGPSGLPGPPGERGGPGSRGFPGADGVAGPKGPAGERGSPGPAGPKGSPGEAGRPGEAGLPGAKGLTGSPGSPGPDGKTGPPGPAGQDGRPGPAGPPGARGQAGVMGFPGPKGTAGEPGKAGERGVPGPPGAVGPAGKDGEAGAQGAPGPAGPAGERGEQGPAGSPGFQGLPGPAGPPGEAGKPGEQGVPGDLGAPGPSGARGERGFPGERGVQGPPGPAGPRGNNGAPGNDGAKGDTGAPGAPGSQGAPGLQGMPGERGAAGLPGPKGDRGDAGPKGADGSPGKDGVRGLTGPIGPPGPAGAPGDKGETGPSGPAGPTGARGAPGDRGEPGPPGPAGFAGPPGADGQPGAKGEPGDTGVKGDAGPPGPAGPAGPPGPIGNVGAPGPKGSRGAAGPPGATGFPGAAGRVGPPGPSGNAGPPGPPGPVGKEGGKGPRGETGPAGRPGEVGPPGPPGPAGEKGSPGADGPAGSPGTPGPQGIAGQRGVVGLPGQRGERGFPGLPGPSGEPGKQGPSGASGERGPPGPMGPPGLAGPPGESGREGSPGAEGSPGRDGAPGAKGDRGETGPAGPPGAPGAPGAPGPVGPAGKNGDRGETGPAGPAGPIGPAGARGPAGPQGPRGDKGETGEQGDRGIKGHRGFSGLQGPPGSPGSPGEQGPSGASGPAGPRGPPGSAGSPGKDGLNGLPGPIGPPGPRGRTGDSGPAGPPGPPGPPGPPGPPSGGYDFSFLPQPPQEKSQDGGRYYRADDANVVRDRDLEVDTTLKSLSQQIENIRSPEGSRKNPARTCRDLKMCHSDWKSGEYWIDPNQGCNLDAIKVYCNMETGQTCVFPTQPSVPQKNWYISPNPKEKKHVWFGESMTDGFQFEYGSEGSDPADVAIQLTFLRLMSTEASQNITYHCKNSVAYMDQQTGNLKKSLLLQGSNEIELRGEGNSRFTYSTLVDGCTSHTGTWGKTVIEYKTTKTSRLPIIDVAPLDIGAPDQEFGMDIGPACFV", "UniProt P02466": "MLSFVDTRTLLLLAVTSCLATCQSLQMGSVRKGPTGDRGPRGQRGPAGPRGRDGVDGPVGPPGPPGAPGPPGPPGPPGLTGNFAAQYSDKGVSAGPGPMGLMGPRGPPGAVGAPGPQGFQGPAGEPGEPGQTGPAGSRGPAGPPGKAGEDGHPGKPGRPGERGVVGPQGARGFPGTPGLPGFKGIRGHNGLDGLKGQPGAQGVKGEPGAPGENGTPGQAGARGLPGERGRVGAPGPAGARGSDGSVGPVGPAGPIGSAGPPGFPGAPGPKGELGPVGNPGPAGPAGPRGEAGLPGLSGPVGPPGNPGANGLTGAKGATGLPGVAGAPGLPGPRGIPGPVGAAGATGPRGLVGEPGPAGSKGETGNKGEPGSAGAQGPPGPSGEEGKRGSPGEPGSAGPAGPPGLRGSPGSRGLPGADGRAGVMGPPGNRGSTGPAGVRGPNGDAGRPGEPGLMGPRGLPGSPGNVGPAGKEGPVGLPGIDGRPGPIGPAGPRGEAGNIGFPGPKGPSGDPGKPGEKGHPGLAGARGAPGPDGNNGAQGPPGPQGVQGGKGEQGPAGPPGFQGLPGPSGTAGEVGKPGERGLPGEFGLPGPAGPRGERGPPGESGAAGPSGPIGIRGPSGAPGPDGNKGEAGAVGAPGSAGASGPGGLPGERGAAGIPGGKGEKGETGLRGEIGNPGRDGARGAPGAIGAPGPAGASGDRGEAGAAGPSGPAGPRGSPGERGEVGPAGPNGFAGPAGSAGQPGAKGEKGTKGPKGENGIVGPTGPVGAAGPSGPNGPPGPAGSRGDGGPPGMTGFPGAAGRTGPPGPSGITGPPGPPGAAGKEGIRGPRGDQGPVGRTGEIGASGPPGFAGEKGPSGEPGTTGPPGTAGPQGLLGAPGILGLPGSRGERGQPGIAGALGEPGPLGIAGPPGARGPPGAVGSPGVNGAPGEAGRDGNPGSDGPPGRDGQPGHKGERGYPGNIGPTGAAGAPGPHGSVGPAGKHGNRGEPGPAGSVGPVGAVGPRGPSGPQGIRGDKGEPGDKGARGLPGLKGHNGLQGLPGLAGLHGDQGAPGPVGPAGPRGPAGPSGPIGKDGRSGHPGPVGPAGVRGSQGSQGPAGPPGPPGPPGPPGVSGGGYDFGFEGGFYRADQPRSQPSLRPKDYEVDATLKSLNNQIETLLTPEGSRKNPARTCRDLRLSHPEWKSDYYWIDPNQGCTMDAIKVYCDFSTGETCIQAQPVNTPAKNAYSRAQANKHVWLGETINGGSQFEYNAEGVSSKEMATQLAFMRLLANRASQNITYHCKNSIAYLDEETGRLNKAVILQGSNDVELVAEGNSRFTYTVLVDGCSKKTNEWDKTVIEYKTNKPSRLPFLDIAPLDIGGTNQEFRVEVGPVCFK", "UniProt P21793, residues 31-360": "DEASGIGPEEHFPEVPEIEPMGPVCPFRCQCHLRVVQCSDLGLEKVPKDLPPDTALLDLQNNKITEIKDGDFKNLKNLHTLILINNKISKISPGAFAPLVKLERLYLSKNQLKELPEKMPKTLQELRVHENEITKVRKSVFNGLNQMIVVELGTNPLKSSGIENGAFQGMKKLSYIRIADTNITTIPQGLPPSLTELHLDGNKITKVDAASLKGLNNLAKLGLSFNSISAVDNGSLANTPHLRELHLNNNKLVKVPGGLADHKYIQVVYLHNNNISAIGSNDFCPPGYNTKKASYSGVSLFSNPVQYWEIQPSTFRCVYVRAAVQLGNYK"},
  "source": "paper PMC3758340",
  "target": "rat tail type I collagen (rat) (UniProt P02454+P02466)",
  "assay": "transmission electron microscopy with cupromeronic blue staining; collagen lattices made from acid-soluble rat tail type I collagen (1 mg/ml) with addition of decorin; GAG chains of decorin stained by cupromeronic blue; ultrathin sections; both purified",
  "note": "No constants are given. Whether binding was seen depends on the method and setting. Some entries that bind do so weakly or less than the wild type.",
  "data": [
    {"substance": "purified bovine decorin (from UniProt P21793 31-360)", "values": [
      {"measurement": "binding", "value": "binds"}
    ]}
  ]
}
